According to US5807983A (The Salk Institute for Biological Studies, priority 1996, dated 1998):
Strings that start with PEPTIDE1 are HELM notation: dots part the residues, brackets hold end groups and non-standard residues.

assay: general procedure: Boc solid-phase peptide synthesis; MBHA resin (0.76 mM/g); DIC; conditions: whole synthesis, capillary zone electrophoresis (CZE) and RP-HPLC, scale of the general procedure about 3 grams of MBHA resin

Substance | final purity (method not given) | final HPLC purity
Ac-D-2Nal-D-4Cpa-D-3Pal-D/L-(methyl,formyl)aminoGly-Aph(Ac)-D-Aph(Ac)-Leu- Lys(isopropyl)-Pro-D-Ala-NH2 | greater than 90% | –
Ac-D-2Nal-D-4Cpa-D-3Pal-D/L-Agl(HO-Ac)Aph(Ac)-D-Aph(Ac)-Leu-Lys(isopropyl)-Pro-D-Ala-NH2 | greater than 90% | –
Ac-D-2Nal-D-4Cpa-D-3Pal-D/L-Agl(formyl)-Aph(Ac)-D-Aph(Ac)-Leu-Lys(isopropyl)-Pro-D-Ala-NH2 | greater than 90% | –
Ac-D/L-Agl(methyl,2-naphthoyl)-D-4Cpa-D-3Pal-Ser-Aph(acetyl)-D-Aph(acetyl)-Leu-Lys(isopropyl)-Pro-D-Ala-NH2 | greater than 90% | –
Ac-β-D-2Nal-D-4Cpa-γ-(4-pyridyl)D/L-amidoGly-Ser-Aph(acetyl)-D- Aph(acetyl)-Leu-Lys(isopropyl)-Pro-D-Ala-NH2 | greater than 80% | –
Ac-β-D-2Nal-D-Cpa-γ-(3-pyridyl)methylD/L-amidoGly-Ser-Aph(acetyl)-D-Aph(acetyl)-Leu-Lys(isopropyl)-Pro-D-Ala-NH2 | greater than 80% | –
Ac-γ-(2-naphthoyl)amidoGly-4Cl-D-Phe-D-3Pal-Ser-Aph(atz)-D-Aph(atz)- Leu-Lys(isopropyl)-Pro-D-Ala-NH2 | greater than 90% | –
PEPTIDE1{[ac].[D-2Nal].[D-4Cpa].[Agl(nicotinoyl)].S.[Aph(Ac)].[D-Aph(Ac)].L.[ILys].P.[dA].[am]}$$$$V2.0 | – | about 97%-98%
